# Data as given in article PMC6950218 (Journal of Medicinal Chemistry, 2011).
smiles,measurement,value
"NCC(=O)N1CCn2c(nc(-c3ccc(F)cc3)c2Nc2ccc(Cl)c(F)c2)C1 [Compound 31, 2-Amino-1-(3-(4-chloro-3-fluorophenylamino)-2-(4-fluorophenyl)-5,6-dihydroimidazo[1,2-a]pyrazin-7(8H)-yl)ethanone]",PAMPA (% absorbed),low
